# Results as given in PubChem BioAssay AID485353 (National Center for Advancing Translational Sciences (NCATS), 2010).
# Screen size: about 330,000 compounds; about 610 (0.18%) were called active. This list was built around the results that the source calls inconclusive (neither active nor inactive); the mix of calls is not that of the screen. Calls come from the whole dose curve. Potencies beside an inconclusive call are fits to weak or partial responses and may not hold up.
# Assay: qHTS of Yeast-based Assay for SARS-CoV PLP; note: nearly all actives have a fitted effect of over 55% in size
# Settings: S. cerevisiae expressing SARS-CoV PLpro; Potency: growth rescue; series mostly up to 32.9 µM
# Potency is the fitted concentration of half-maximal effect.
row,Structure (SMILES),Potency
1,CCCN(CCC)CCNS(=O)(=O)c1ccc2c(c1)oc(=O)n2C,"inconclusive: 20 µM [activator, single point]"
2,Cc1c(C)n(CCc2ccccc2)c2ncnc(NCCO)c12,inactive
3,COc1ccc(CC(NC(C)=O)C(=O)NC2CCN(S(=O)(=O)c3ccccc3)CC2)c(OC)c1 (centres undefined),"inconclusive: 14.1 µM [activator, partial curve]"
4,CN(C)CCc1cc2c(c3c1ccc1ccccc13)OCO2,"inconclusive: 3.98 µM [activator, partial curve]"
5,Cc1ccc(C)c(N2CCN(C(=O)c3ccc4nc(-c5ccco5)c(-c5ccco5)nc4c3)CC2)c1,inactive
6,COc1ccc(-c2nc(CC(=O)Nc3cccc(S(=O)(=O)NC4=NCCC4)c3)cs2)cc1,inactive
7,Cc1ccc(C)c(NC(=S)NNC(=O)c2csc(C(C)C)c2)c1,active: 10 µM
8,Nn1c(-c2cccc(Br)c2)n[nH]c1=S,inactive
9,CNC(=O)CSc1nnc(-c2ccco2)n1-c1cccc(C)c1,"inconclusive: 4.47 µM [activator, single point]"
10,C=CCOc1ccc(C2NC(=S)NC(C)=C2C(=O)c2ccccc2)cc1OC (centres undefined),"inconclusive: 20 µM [activator, single point]"
11,Cc1nc(Cl)c2c(n1)NC1=C(O2)C(=O)CCC1,inactive
12,Cc1cccc(COc2ccccc2C(=O)NC2CCC(O)CC2)c1 (centres undefined),"inconclusive: 3.55 µM [activator, single point]"
13,CCn1c(=O)cc(SCC(=O)Nc2cccc(SC)c2)c2ccccc21,"inconclusive: 10 µM [activator, partial curve]"
14,COc1ccc(C(=O)NCCCOC(=O)c2ccc(OC)cc2)cc1,"inconclusive: 12.6 µM [activator, partial curve]"
15,CC1=NN(/C(=N\c2nnc(C)s2)Nc2ccccc2)[C@H](c2ccc(C)cc2)S1,"inconclusive: 5.01 µM [activator, partial curve]"
16,CCNc1nc(OC)nc(Oc2ccc(=O)n(-c3ccccc3)n2)n1,"inconclusive: 3.98 µM [activator, partial curve]"
17,CC(C)C1N(S(=O)(=O)c2ccccc2)CCN1S(=O)(=O)c1ccccc1,"inconclusive: 4.47 µM [activator, single point]"
18,O=C(NCc1ccc2c(c1)OCO2)c1ccc(CSCc2ccccc2Cl)o1,"inconclusive: 2.24 µM [activator, partial curve]"
19,COc1ccc(CNS(=O)(=O)c2ccc3oc(C(=O)O)c(C)c3c2)cc1,"inconclusive: 1 µM [activator, partial curve]"

# 3 structures from above, arranged by formula weight, low to high.
row,Structure (SMILES),Potency
4,CN(C)CCc1cc2c(c3c1ccc1ccccc13)OCO2,"inconclusive: 3.98 µM [activator, partial curve]"
9,CNC(=O)CSc1nnc(-c2ccco2)n1-c1cccc(C)c1,"inconclusive: 4.47 µM [activator, single point]"
10,C=CCOc1ccc(C2NC(=S)NC(C)=C2C(=O)c2ccccc2)cc1OC (centres undefined),"inconclusive: 20 µM [activator, single point]"
